We go through 2 molecules from paper PMC5707034.

By UniProt entry, the sequences of proteins in these tests, tags left out.
UniProt Q03135: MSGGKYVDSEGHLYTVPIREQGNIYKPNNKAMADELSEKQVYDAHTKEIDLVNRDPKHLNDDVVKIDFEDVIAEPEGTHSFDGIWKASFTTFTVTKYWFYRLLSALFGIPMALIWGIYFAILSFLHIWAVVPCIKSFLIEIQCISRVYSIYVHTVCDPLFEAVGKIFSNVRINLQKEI

Assay [1] deals with T1, Flag-tagged MIM-B (missing in metastasis B; metastasis suppressor 1) (human) (UniProt O43312).
T1 sequence: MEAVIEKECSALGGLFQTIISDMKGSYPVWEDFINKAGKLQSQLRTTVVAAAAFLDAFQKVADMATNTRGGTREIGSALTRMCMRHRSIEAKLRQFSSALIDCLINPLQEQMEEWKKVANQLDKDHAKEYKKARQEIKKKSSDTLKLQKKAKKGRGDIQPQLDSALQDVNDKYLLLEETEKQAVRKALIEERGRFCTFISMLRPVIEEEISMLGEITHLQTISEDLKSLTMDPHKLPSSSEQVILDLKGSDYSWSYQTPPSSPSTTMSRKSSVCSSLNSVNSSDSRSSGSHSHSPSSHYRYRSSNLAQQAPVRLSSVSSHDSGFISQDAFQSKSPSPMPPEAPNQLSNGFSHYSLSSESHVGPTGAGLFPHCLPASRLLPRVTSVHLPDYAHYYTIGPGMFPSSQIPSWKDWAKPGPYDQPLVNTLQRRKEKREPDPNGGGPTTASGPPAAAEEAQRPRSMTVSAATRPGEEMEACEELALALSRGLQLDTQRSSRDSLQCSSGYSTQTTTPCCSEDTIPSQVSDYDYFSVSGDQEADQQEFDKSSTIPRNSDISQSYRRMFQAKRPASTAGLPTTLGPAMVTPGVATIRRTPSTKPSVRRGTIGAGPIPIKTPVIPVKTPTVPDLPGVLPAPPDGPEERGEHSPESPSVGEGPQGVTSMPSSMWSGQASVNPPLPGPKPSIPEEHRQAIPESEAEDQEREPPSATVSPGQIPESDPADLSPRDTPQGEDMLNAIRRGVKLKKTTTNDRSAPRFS
Briefly: co-IP; cells transfected with MIM-B lacking IMD or WH2 (pcDNA-3.1), compared with MIM-B; which protein was precipitated not given; RIPA lysis buffer, 4°C.

In assay [2] the target is T2, MIM-B (endogenous) (human (endogenous in MHCC97H)) (UniProt O43312).
T2 sequence: T1 sequence
Briefly: co-IP; endogenous proteins in MHCC97H cells; immunoprecipitation with anti-MIM-B or anti-caveolin-1 polyclonal antibodies, each in turn; RIPA lysis buffer (1% NP-40, 50 mM Tris-HCl pH 7.4, 150 mM NaCl, 1 mM EDTA), 4°C.

The target in assay [3] is T1, Flag-tagged MIM-B (missing in metastasis B; metastasis suppressor 1) (human). The assay is described as follows: co-IP; Flag-MIM-B transfected into Hep3B and SMMC7721 cells; anti-Flag immunoprecipitation, anti-caveolin-1 immunoblot; RIPA lysis buffer (1% NP-40, 50 mM Tris-HCl pH 7.4, 150 mM NaCl, 1 mM EDTA), 4°C, protein A/G sepharose.
The target in assay [4] is caveolin-1 (endogenous) (human (endogenous in Hep3B, SMMC7721 and MHCC97H)) (UniProt Q03135). The assay is described as follows: co-IP; endogenous proteins in MHCC97H cells; immunoprecipitation with anti-MIM-B or anti-caveolin-1 polyclonal antibodies, each in turn; RIPA lysis buffer (1% NP-40, 50 mM Tris-HCl pH 7.4, 150 mM NaCl, 1 mM EDTA), 4°C.

No constants are given. Whether binding was seen depends on the method and setting. In cells and extracts the contact can be indirect. Some results given as binding are weak or reduced against the parent protein; the word gives no strength. For some of these results: Where a sequence is shown, tags or fusion partners need not be part of it.

Take “caveolin-1 (endogenous) (from UniProt Q03135 1-178)”: the binding entry in assay [1], in assay [2] and in assay [3] was “binds” throughout.

B1: MIM-B (endogenous) (protein, UniProt O43312 1-755)
chain: T1 sequence
As to B1, in assay [4], the binding entry is given as “binds”.
